Measurements taken from the supplement of paper PMC12067093, “Discovery and optimisation of a covalent ligand for TRIM25 and its application to targeted protein ubiquitination” (Chemical Science, 2025).
The other results are listed elsewhere or left out.

By UniProt entry, the sequences of proteins in these tests, tags left out. Where a name states a change or a piece, a line headed by the entry shows the natural chain unless it says otherwise.
UniProt Q15041, whole entry: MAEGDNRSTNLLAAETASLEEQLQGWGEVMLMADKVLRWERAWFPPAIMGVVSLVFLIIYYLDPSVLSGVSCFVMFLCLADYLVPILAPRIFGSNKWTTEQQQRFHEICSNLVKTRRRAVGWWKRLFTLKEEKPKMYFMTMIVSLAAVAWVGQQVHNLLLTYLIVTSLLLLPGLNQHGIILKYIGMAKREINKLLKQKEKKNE
UniProt P61204: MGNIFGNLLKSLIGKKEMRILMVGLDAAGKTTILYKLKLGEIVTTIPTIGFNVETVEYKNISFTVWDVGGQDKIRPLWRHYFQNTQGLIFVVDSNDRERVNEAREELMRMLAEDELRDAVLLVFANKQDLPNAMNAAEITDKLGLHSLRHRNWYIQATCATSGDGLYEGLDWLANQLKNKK
UniProt Q9HC16: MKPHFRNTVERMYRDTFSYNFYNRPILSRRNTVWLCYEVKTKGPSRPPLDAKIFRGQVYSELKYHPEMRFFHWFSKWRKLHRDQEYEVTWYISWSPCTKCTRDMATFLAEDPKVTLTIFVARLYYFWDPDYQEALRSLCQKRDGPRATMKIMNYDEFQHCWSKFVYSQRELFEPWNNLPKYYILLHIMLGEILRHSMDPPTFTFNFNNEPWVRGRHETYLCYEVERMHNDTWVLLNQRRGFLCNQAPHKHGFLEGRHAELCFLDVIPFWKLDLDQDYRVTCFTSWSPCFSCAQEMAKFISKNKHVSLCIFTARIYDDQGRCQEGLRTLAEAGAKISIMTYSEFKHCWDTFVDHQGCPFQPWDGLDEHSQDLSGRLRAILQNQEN
UniProt Q96P48: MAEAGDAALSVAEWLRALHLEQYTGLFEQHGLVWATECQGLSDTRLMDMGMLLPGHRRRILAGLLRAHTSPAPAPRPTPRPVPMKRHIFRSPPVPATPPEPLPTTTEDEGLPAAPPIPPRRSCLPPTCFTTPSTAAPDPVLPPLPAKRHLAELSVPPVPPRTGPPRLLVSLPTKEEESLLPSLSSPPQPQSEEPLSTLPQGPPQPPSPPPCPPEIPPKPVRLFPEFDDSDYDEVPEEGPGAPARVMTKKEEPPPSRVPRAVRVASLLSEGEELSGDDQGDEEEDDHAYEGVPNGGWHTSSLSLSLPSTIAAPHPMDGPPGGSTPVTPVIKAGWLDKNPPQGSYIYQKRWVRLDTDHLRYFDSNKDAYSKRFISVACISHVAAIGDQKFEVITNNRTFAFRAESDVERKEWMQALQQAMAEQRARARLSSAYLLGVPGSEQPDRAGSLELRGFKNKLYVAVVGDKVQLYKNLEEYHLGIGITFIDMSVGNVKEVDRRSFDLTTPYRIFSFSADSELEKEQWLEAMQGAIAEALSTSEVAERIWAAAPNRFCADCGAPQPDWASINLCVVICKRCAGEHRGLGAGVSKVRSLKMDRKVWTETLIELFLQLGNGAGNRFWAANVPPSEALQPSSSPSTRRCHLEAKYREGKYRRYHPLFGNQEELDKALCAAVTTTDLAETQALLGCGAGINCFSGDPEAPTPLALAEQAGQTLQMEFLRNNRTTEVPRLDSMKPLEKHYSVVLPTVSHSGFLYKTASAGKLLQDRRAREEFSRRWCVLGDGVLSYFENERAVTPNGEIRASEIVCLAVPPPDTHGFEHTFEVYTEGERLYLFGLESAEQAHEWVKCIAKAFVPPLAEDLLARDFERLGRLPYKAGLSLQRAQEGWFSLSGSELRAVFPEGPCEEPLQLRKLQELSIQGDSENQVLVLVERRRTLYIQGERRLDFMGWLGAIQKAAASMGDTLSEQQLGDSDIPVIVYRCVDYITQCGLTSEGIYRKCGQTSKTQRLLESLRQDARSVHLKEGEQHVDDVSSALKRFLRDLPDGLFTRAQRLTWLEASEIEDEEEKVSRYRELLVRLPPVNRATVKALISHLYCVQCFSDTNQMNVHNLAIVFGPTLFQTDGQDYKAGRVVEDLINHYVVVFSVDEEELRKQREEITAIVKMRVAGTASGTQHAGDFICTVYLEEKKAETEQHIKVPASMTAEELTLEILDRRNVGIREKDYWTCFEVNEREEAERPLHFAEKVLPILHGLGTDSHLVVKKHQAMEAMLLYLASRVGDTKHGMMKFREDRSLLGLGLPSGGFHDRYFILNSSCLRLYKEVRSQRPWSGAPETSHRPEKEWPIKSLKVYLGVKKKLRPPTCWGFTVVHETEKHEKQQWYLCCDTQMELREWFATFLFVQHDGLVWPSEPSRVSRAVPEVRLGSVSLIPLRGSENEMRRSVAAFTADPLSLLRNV
UniProt P27540, whole entry, looked up: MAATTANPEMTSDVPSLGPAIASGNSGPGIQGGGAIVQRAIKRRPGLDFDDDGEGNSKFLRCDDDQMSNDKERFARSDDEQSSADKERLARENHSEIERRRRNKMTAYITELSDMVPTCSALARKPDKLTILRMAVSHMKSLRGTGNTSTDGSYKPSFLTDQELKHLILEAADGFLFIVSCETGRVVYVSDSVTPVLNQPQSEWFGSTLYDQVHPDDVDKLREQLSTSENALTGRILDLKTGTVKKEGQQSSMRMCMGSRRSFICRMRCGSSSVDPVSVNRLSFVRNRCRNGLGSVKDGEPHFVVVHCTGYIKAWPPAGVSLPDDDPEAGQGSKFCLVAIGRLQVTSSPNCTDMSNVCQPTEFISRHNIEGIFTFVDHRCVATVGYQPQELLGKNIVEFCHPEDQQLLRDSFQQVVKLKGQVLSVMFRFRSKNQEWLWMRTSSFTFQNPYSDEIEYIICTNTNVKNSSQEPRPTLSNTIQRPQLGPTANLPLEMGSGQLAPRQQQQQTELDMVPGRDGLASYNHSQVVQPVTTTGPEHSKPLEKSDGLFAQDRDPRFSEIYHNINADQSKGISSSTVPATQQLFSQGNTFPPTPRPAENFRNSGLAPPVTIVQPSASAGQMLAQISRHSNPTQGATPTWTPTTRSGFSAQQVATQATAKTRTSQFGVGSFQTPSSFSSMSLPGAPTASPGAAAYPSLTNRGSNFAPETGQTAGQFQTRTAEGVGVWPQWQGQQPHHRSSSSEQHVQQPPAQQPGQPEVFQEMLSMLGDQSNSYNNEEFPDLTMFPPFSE
UniProt Q7Z6I6: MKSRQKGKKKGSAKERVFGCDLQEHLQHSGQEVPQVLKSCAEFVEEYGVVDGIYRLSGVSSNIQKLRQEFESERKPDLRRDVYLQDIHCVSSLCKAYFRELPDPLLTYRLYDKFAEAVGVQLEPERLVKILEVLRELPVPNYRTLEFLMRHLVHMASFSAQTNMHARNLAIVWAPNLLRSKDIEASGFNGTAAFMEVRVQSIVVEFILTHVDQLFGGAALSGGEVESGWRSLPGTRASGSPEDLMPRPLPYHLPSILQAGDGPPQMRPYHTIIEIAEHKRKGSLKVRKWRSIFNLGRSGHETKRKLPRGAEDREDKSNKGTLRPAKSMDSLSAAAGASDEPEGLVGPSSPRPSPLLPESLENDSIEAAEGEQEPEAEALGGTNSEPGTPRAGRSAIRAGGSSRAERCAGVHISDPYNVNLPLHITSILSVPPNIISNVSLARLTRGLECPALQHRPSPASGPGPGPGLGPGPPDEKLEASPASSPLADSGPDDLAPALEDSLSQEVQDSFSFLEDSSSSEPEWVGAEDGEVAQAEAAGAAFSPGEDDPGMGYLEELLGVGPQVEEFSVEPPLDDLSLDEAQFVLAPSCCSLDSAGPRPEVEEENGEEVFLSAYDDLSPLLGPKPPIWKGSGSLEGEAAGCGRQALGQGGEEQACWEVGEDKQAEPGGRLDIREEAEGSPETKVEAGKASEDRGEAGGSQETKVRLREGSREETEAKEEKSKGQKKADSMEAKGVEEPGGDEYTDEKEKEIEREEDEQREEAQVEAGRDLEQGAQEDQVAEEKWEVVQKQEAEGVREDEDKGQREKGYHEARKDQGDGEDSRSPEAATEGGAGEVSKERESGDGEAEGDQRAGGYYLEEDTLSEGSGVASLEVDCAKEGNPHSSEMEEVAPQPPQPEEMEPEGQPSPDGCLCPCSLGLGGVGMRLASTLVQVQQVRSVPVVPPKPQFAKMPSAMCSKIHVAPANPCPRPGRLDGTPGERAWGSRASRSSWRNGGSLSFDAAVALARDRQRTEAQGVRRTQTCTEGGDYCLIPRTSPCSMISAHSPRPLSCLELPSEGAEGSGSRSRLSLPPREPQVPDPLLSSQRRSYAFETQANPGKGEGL
UniProt P40616: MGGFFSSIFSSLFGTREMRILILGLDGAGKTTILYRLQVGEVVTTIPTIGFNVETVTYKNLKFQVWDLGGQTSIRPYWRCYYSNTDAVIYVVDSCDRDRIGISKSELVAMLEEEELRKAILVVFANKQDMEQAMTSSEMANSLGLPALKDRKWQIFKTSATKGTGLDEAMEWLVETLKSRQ
UniProt Q15052: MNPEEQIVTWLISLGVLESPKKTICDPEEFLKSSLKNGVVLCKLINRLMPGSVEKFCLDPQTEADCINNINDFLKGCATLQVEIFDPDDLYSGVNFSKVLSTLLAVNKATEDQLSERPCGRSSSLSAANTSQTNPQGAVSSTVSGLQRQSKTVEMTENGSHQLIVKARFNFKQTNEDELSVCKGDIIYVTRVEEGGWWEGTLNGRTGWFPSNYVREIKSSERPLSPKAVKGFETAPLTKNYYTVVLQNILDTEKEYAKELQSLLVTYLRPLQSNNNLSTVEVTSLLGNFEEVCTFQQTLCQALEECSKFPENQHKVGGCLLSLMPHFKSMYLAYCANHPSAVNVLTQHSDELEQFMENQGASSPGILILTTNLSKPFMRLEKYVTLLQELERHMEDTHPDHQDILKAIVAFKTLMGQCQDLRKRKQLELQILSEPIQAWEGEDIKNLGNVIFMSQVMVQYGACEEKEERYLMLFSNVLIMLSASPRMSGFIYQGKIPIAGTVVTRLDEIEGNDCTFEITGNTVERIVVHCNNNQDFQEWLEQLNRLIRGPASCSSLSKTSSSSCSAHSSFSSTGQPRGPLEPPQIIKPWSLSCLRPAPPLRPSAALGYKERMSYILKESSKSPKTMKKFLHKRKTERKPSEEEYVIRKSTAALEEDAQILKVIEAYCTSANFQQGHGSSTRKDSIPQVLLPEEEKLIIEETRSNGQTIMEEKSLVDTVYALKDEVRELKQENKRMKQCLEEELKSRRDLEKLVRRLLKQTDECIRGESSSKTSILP
UniProt Q9NVT9: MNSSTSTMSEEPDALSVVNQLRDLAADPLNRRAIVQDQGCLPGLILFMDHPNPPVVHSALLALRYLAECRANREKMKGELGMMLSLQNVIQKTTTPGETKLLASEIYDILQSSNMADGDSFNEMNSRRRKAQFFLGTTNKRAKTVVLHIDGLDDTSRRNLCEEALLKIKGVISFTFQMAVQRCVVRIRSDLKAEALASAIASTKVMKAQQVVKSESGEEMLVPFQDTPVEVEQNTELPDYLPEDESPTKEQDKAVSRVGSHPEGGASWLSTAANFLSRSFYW
UniProt Q92888: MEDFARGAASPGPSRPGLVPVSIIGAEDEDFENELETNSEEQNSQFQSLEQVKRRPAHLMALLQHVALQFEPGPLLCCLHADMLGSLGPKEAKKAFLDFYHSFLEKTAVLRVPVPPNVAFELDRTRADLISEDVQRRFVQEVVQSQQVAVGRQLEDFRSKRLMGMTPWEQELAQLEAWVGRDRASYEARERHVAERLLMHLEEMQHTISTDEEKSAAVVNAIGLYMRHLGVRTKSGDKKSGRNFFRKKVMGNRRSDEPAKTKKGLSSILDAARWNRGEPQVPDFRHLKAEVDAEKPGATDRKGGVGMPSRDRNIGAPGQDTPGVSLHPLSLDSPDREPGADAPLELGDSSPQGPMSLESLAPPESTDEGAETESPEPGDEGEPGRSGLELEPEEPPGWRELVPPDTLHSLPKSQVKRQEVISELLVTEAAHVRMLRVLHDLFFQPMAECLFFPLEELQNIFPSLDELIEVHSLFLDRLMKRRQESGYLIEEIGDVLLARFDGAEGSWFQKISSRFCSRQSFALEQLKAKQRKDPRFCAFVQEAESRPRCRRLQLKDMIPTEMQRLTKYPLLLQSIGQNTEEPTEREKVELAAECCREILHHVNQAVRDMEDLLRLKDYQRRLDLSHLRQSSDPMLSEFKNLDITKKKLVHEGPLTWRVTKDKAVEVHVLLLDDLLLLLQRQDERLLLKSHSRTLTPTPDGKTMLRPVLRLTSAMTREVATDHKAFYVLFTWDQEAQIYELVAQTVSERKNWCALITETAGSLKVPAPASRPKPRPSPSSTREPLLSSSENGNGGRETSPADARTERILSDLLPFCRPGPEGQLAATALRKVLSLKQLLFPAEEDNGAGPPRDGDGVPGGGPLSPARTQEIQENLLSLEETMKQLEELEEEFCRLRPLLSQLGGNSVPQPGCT

compound: CC1Cc2ccccc2N1C(=O)C1CCCN(C1)C(=O)CCl (mixture of isomers) [TRIM25 ligand 11 (diastereomer mixture)]; assay: probe-labelled cysteine peptide fold change vs DMSO (competition) (log2 fold change); higher = less target engagement (more negative = stronger competition); settings: 10 µM; THP-1; incubation time: 4 h
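Note: competitive chemoproteomic profiling in live THP-1 cells with an iodoacetamide desthiobiotin (IA-DTB) probe, comparing probe-labelled peptide intensities in compound-treated cells against DMSO-treated controls.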

| Target | probe-labelled cysteine peptide fold change |
| --- | --- |
| ARL6IP1_Q15041_109_FHEICSNLVK (UniProt Q15041) | 0.0835 |
| ARHGAP45_Q92619_783_CVCEIER (UniProt Q92619) | 0.0269 |
| ARIH1_Q9Y4X5_418_YLFYCNR (UniProt Q9Y4X5) | 0.0974 |
| ARF3_P61204_159_HRNWYIQATCATSGDGLYEGLDWLANQLK (UniProt P61204) | -0.226 |
| APOBEC3G_Q9HC16_221_GRHETYLCYEVER (UniProt Q9HC16) | 0.137 |
| ARAP1_Q96P48_803_ASEIVCLAVPPPDTHGFEHTFEVYTEGER (UniProt Q96P48) | -0.0144 |
| ARNT_P27540_62_CDDDQMSNDK (UniProt P27540) | -0.141 |
| ARHGAP30_Q7Z6I6_640_GSGSLEGEAAGCGR (UniProt Q7Z6I6) | -0.132 |
| ARHGEF18_Q6ZSZ5_315_ECVNGHQLLQGTFSGPSSCPLCGKPFLSSASLK (UniProt Q6ZSZ5) | -0.187 |
| ARL1_P40616_80+95_CYYSNTDAVIYVVDSCDRDR (UniProt P40616) | 0.209 |
| ARHGAP4_P98171_840_QVVGAGLQTAGESGSSPEGLLASELVHRPEPCTSPEAMGPSGHR (UniProt P98171) | 0.00394 |
| APPL1_Q9UKG1_570_LTFPLPCVVLYATHQENK (UniProt Q9UKG1) | -0.28 |
| ARIH1_Q9Y4X5_281_WCPAPDCHHVVK (UniProt Q9Y4X5) | 0.128 |
| APPL1_Q9UKG1_368_DHEEWICTINNISK (UniProt Q9UKG1) | -0.0639 |
| ARFGEF1_Q9Y6D6_1050_CISQLELAQLIGTGVKPR (UniProt Q9Y6D6) | -0.205 |
| ARHGEF2_Q92974_573_TCPSREDFPLIETEDEAYLR (UniProt Q92974) | -0.0469 |
| ARHGEF6_Q15052_119_ATEDQLSERPCGR (UniProt Q15052) | -0.0511 |
| ARHGAP45_Q92619_324_IAHNCR (UniProt Q92619) | 0.0833 |
| ARMC1_Q9NVT9_69_YLAECR (UniProt Q9NVT9) | -0.126 |
| ARAP1_Q96P48_1357_LRPPTCWGFTVVHETEK (UniProt Q96P48) | 0.0858 |

| Target | probe-labelled cysteine peptide fold change |
| --- | --- |
| ARHGEF2_Q92974_282_TGMLEELHLEPGVVQGLFPCVDELSDIHTR (UniProt Q92974) | -0.139 |
| ARHGAP4_P98171_855_CLVPASPEQHVEVDK (UniProt P98171) | 0.00446 |
| ARMH3_Q5T2E6_80_DNINCLFQHCIQALGEEHPIR (UniProt Q5T2E6) | -0.195 |
| APOBR_Q0VD83_257_ACESTR (UniProt Q0VD83) | 0.201 |
| ARHGEF10_O15013_959_ILCMLYVPVEEK (UniProt O15013) | 0.141 |
| ARFGAP2_Q8N6H7_97_QHGCTANDANTK (UniProt Q8N6H7) | -0.00842 |
| ARPC1B_O15143_227_VAWVSHDSTVCLADADK (UniProt O15143) | 0.316 |
| ARAP1_Q96P48_38_ALHLEQYTGLFEQHGLVWATECQGLSDTR (UniProt Q96P48) | -0.213 |
| ARID2_Q68CP9_382_GMEILGNLCK (UniProt Q68CP9) | -0.000335 |
| ARHGEF1_Q92888_537_FCAFVQEAESRPR (UniProt Q92888) | 0.119 |
| ARHGEF6_Q15052_530_IVVHCNNNQDFQEWLEQLNR (UniProt Q15052) | 0.162 |
| ARFGEF1_Q9Y6D6_102_IVSTSLDCLQK (UniProt Q9Y6D6) | -0.0997 |
| ARL2_P36404_153+157_SHHWCIQGCSAVTGENLLPGIDWLLDDISSR (UniProt P36404) | 0.251 |
| ARPC1B_O15143_13_AYHSFLVEPISCHAWNK (UniProt O15143) | 0.262 |
| ARHGEF6_Q15052_418_TLMGQCQDLR (UniProt Q15052) | 0.233 |
| ARHGAP4_P98171_102_KEPSLLSPLHCWAVLLQHTR (UniProt P98171) | -0.014 |
| ARHGEF1_Q92888_595_EKVELAAECCR (UniProt Q92888) | -0.216 |
| ARID4B_Q4LE39_107_SSLCLK (UniProt Q4LE39) | -0.0353 |
| ARHGEF12_Q9NZN5_784_EVLLGLKPCEIK (UniProt Q9NZN5) | -0.0857 |

same assay, conditions: 50 µM; THP-1; incubation time: 4 h

| Target | probe-labelled cysteine peptide fold change |
| --- | --- |
| ARL6IP1_Q15041_109_FHEICSNLVK (UniProt Q15041) | 0.0223 |
| ARHGAP45_Q92619_783_CVCEIER (UniProt Q92619) | 0.181 |
| ARIH1_Q9Y4X5_418_YLFYCNR (UniProt Q9Y4X5) | 0.149 |
| ARF3_P61204_159_HRNWYIQATCATSGDGLYEGLDWLANQLK (UniProt P61204) | -0.355 |
| APOBEC3G_Q9HC16_221_GRHETYLCYEVER (UniProt Q9HC16) | -0.2 |
| ARAP1_Q96P48_803_ASEIVCLAVPPPDTHGFEHTFEVYTEGER (UniProt Q96P48) | -0.0359 |
| ARNT_P27540_62_CDDDQMSNDK (UniProt P27540) | -0.179 |
| ARHGAP30_Q7Z6I6_640_GSGSLEGEAAGCGR (UniProt Q7Z6I6) | -0.294 |
| ARHGEF18_Q6ZSZ5_315_ECVNGHQLLQGTFSGPSSCPLCGKPFLSSASLK (UniProt Q6ZSZ5) | -0.0792 |
| ARL1_P40616_80+95_CYYSNTDAVIYVVDSCDRDR (UniProt P40616) | 0.066 |
| ARHGAP4_P98171_840_QVVGAGLQTAGESGSSPEGLLASELVHRPEPCTSPEAMGPSGHR (UniProt P98171) | -0.325 |
| APPL1_Q9UKG1_570_LTFPLPCVVLYATHQENK (UniProt Q9UKG1) | 0.115 |
| ARIH1_Q9Y4X5_281_WCPAPDCHHVVK (UniProt Q9Y4X5) | 0.0177 |
| APPL1_Q9UKG1_368_DHEEWICTINNISK (UniProt Q9UKG1) | -0.0724 |
| ARFGEF1_Q9Y6D6_1050_CISQLELAQLIGTGVKPR (UniProt Q9Y6D6) | -0.131 |
| ARHGEF2_Q92974_573_TCPSREDFPLIETEDEAYLR (UniProt Q92974) | -0.127 |
| ARHGEF6_Q15052_119_ATEDQLSERPCGR (UniProt Q15052) | -0.0611 |
| ARHGAP45_Q92619_324_IAHNCR (UniProt Q92619) | 0.118 |
| ARMC1_Q9NVT9_69_YLAECR (UniProt Q9NVT9) | -0.0139 |
| ARAP1_Q96P48_1357_LRPPTCWGFTVVHETEK (UniProt Q96P48) | 0.063 |

| Target | probe-labelled cysteine peptide fold change |
| --- | --- |
| ARHGEF2_Q92974_282_TGMLEELHLEPGVVQGLFPCVDELSDIHTR (UniProt Q92974) | -0.128 |
| ARHGAP4_P98171_855_CLVPASPEQHVEVDK (UniProt P98171) | -0.299 |
| ARMH3_Q5T2E6_80_DNINCLFQHCIQALGEEHPIR (UniProt Q5T2E6) | 0.135 |
| APOBR_Q0VD83_257_ACESTR (UniProt Q0VD83) | 0.222 |
| ARHGEF10_O15013_959_ILCMLYVPVEEK (UniProt O15013) | 0.25 |
| ARFGAP2_Q8N6H7_97_QHGCTANDANTK (UniProt Q8N6H7) | -0.00956 |
| ARPC1B_O15143_227_VAWVSHDSTVCLADADK (UniProt O15143) | 0.0213 |
| ARAP1_Q96P48_38_ALHLEQYTGLFEQHGLVWATECQGLSDTR (UniProt Q96P48) | -0.114 |
| ARID2_Q68CP9_382_GMEILGNLCK (UniProt Q68CP9) | 0.149 |
| ARHGEF1_Q92888_537_FCAFVQEAESRPR (UniProt Q92888) | 0.000203 |
| ARHGEF6_Q15052_530_IVVHCNNNQDFQEWLEQLNR (UniProt Q15052) | 0.239 |
| ARFGEF1_Q9Y6D6_102_IVSTSLDCLQK (UniProt Q9Y6D6) | -0.0175 |
| ARL2_P36404_153+157_SHHWCIQGCSAVTGENLLPGIDWLLDDISSR (UniProt P36404) | 0.0746 |
| ARPC1B_O15143_13_AYHSFLVEPISCHAWNK (UniProt O15143) | -0.0758 |
| ARHGEF6_Q15052_418_TLMGQCQDLR (UniProt Q15052) | 0.204 |
| ARHGAP4_P98171_102_KEPSLLSPLHCWAVLLQHTR (UniProt P98171) | -0.0472 |
| ARHGEF1_Q92888_595_EKVELAAECCR (UniProt Q92888) | 0.00529 |
| ARID4B_Q4LE39_107_SSLCLK (UniProt Q4LE39) | 0.0713 |
| ARHGEF12_Q9NZN5_784_EVLLGLKPCEIK (UniProt Q9NZN5) | -0.0468 |
